Measured values as given in patent US8388960B2, “Elimination of heterogeneous or mixed cell population in tumors” (priority 2005, dated 2013).
Some entries share one result that the patent states for a list of compounds.

Tested on: COLO 205 cells
Test: Cell cycle studies (G2/M arrest, DNA content by FACS) in COLO 205 cells
Format: cell-based, human
Details: asynchronous cells, 20 h

SMILES: COC(=O)Nc1nc2ccc(C(=O)c3cccs3)cc2[nH]1 [nocodazole, reference compound]
- cells in G2/M in the presence of BafA1 (30 nM BafA1): 37%-39%
- cells arrested in the G2/M phase (37° C., conjugate 3 nM, DM1-SMe 10 nM, nocodazole 0.66 μM): greater than 50%
